Source: paper PMC2713237
These are yes or no findings as the source states them, for the method shown. Binding seen in cells or lysates may run through a third protein. Here binding means that the protein was enriched with, or labelled near, the bait; the list need not be complete. No binding means not detected with the bait.

Sequences of proteins named here, by UniProt entry; tags and fusion partners are left off. Residues count along the entry.
UniProt P01558, residues 116-319: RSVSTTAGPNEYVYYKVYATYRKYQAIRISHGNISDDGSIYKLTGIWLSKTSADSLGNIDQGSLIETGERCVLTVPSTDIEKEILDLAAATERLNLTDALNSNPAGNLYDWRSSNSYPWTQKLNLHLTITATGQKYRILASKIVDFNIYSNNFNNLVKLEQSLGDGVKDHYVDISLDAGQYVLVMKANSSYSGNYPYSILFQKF
UniProt Q5I0H3, residues 1-97: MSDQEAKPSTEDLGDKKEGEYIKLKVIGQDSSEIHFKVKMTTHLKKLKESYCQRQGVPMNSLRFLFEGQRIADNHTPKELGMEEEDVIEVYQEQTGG
UniProt A0A0G2K2P5: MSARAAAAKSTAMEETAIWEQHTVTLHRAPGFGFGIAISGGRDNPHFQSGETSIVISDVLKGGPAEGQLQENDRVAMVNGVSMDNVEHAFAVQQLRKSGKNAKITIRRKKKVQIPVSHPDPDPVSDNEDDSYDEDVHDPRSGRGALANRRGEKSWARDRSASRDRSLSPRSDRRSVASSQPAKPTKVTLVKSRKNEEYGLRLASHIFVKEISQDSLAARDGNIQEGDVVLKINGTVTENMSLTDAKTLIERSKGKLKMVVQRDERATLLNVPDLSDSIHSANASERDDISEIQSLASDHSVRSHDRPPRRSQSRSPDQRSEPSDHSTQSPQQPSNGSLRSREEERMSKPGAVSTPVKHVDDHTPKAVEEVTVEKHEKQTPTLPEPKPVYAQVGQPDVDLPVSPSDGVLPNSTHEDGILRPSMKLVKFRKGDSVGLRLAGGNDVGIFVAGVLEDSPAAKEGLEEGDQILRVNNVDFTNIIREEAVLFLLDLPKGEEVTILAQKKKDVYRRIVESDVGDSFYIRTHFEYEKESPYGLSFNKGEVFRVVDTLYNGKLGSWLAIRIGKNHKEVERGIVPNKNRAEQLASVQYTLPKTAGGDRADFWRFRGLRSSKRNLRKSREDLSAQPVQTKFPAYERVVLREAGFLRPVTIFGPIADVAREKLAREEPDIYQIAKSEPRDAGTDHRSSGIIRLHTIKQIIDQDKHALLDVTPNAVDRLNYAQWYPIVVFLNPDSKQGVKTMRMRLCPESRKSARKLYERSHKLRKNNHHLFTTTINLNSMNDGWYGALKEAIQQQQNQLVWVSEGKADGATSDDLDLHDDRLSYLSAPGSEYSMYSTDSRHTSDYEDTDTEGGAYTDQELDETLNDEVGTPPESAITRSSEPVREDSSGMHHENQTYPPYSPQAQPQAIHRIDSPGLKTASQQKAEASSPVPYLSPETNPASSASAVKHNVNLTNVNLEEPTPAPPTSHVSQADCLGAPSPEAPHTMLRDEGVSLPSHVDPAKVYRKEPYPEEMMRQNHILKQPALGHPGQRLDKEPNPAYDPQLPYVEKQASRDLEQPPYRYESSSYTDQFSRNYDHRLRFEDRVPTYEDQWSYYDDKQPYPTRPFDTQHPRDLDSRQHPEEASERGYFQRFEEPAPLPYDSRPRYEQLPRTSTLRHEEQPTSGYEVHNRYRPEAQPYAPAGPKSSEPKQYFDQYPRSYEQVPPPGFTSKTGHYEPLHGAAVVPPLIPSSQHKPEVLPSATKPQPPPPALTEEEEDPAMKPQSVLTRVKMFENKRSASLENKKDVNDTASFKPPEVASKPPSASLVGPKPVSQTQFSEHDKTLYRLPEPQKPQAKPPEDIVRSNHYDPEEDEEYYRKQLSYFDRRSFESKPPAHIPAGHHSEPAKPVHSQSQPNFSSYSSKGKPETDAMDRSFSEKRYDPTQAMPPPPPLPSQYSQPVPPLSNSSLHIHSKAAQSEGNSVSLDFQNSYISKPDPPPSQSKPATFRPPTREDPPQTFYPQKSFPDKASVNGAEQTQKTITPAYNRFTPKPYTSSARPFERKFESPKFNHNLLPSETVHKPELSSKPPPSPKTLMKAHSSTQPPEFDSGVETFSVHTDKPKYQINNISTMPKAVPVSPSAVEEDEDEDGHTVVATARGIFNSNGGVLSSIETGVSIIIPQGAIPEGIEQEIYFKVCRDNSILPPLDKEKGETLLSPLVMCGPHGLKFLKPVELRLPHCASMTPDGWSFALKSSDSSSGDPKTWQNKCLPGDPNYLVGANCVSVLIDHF

Target: GST-CPE_(116–319) fusion protein (Clostridium perfringens) (UniProt P01558)
Experiment: affinity purification with mass spectrometry; only the target purified

Small ubiquitin-related modifier 1 (SUMO-1) (from UniProt Q5I0H3 1-97)
binding: binds

ZO-1 (from UniProt A0A0G2K2P5 1-1765)
binding: no binding
